Data taken from patent US8124032B2, “Microfluidic device and method of using same” (priority 2004, dated 2012).
At least one structure is not confirmed: it was looked up by name or label, or the drawing left a doubt.

Test system: single yeast cell (intracellular carboxylesterase, efflux process)
Assay: Single-cell FDA metabolism (influx/hydrolysis/efflux), curve fitting to enzymatic model
Format: cell-based, Sacchomyces cereviase
Description: In one of the embodiments of the invention, to study a model of a yeast metabolic process using the microfluidic device of the invention, the inventors selected a cell-permeable fluorogenic substrate, fluorescein diacetate (FDA), which is normally used to determine cell viability^42. After influx of FDA into a yeast cell, the intracellular enzyme carboxylesterase^43 hydrolyzes FDA to fluorescein, which will then be excreted from the cell (through efflux).
To examine the cells in an embodiment of the microfluidic device, the device was placed on the translation stage of an inverted microscope and simultaneous optical observation and fluorescent measurement were carried out. To carry out fluorescent intensity calibration in the microfluidic device, polystyrene beads (6 μm diameter, InSpeck™ Green, Molecular Probes) were used. Three-dimensional liquid flow control was accomplished by either electric or fluid potential.
With electric potential control, only low-conducting liquids, such as G7, H4 could be delivered to the cells (cell 3, 4, 5). The two buffers were G7 (28.5 mM HEPES, 256 mM D-glucose, pH=7.3) and H4 (285 mM HEPES, pH=4.3). 12 μM FDA was used, where appropriate. With fluid potential (<1 mm) control, highly conducting liquids such as YPD, NaCl, KCl, EDTA could also be used.
FIG. 16I depicts the schematic diagram of a yeast cell with a daughter bud, showing the relationship between the concentrations of extracellular FDA (A), intracellular FDA (B) and fluorescein (C) as a function of time (t). The kinetic model can be described by several equations. Equation (1) is the material balance of FDA (B) in the cell. Equation (2) is the material balance of fluorescein (C) in the cell. Equations (1) and (2) were derived from first principles as discussed below.
[formula] The notations are A: extracellular FDA (μM); B: intracellular FDA (μM); C: intracellular fluorescein (μM); S: cell surface area (μm^2) and V: cell volume (μm^3), as calculated from the diameter (μm) of the cell (D1) and its bud (D2); kb: transport coefficient (μm s^−1); Vm (μM s^−1) and Km (μM): Michaelis-Menten kinetic parameters for the carboxylesterase; Ve (μM μm s^−1) and Ke (μM): Michaelis-Menten kinetic parameters for the efflux process.
[formula] Equation (3) represents the increasing rate of the carboxylesterase activity as indicated by the Michaelis-Menten parameter Vm, where k is the rate constant (μM s^−2). Derivation for Equation (1): Material Balance of FDA in the Cell
Here, T0, T1 and T2 are the time at which influx, hydrolysis and efflux start, respectively.
In the self-control mode, when influx is not allowed, kb=0. […] During hydrolysis (T1 to T2), there is no influx and efflux, i.e. kb=0, Vm>0, and Ve=0. Finally, during efflux (after T2), there is no influx and hydrolysis, i.e. kb=0, Vm=0, and Ve>0. In the lost-control mode, kb>0, Vm>0, and Ve>0. In the “death” mode, kb=0, Vm=0, and Ve=0. In this case, the cell appears dead when there is no change in the concentration of cellular fluorescein.
Curve-fitting experiments were also carried out for two other single yeast cells under various stimuli, see FIG. 17.

O=C1OC2(c3ccc(O)cc3Oc3cc(O)ccc32)c2ccccc21 [fluorescein]
Ve (efflux process) (cell 3, T0 2140 s, self-control mode): 1 μM μm s^−1
Ve (efflux process) (cell 4, T0 4950 s, self-control mode): 0.3 μM μm s^−1
Ve (efflux process) (cell 4, T0 6590 s, self-control mode): 0.8 μM μm s^−1
Ve (efflux process) (cell 4, T0 8627 s, lost-control mode): 1 μM μm s^−1
Ve (efflux process) (cell 5, T0 208 s, self-control mode): 0.1 μM μm s^−1
Ve (efflux process) (cell 5, T0 1030 s, self-control mode): 0.1 μM μm s^−1
Ve (efflux process) (cell 5, T0 3300 s, self-control mode): 1 μM μm s^−1
Ve (efflux process) (cell 5, T0 5600 s, lost-control mode): 1 μM μm s^−1
Ve (efflux process) (cell ‡ (another single yeast cell similar to cell 3), T0 2200 s, self-control mode): 0.6 μM μm s^−1
